Measurements: patent US20200115446A1 (NATIONAL UNIVERSITY CORPORATION HOKKAIDO UNIVERSITY, priority 2017, published 2020)

Legend:
Type in all cases: in vivo, rat
[1] = system: osteoclasts; assay: TRACP staining of osteoclasts, growing healthy rats; conditions: age of 12 weeks, vs. Ct1 group
Procedure: 6-week-old growing male F344 rats were used.
(2) Experimental Groups (n=10 in Each Group) (i) Control group (hereinafter, referred to as “Ct1 group”) (ii) Anti-Siglec-15 antibody administration group (hereinafter, referred to as “Sig-15 Ab administration group”): The #32A1 antibody was used as an anti-Siglec-15 antibody. The anti-Siglec-15 antibody was subcutaneously administered once every 3 weeks at a dosage of 0.25, 1 or 4 mg/kg. (iii) Bisphosphonate administration group (hereinafter, referred to as “ALN administration group”): Alendronate (ALN) (manufactured by LKT Laboratories, Inc.) was subcutaneously administered twice a week at a dosage of 0.028 or 0.140 mg/kg.
6 weeks after the start of administration (age of 6 weeks to age of 12 weeks). After the end of the period (age of 12 weeks), the animals were euthanized, and evaluation was performed.
Decalcified tissue sample: knee joint disarticulation was performed, and samples of a coronal section tissue of the proximal tibia (proximal right knee tibia ½) and a fifth lumber vertebra coronal section tissue were prepared.
Osteoclastic cells were detected and evaluated by chemical staining with tartrate-resistant acid phosphatase (TRACP) (hereinafter, referred to as “TRACP staining”) and counter staining with methyl green. The growth cartilage part was detected and evaluated by safranine O staining (staining of acidic mucopolysaccharide).

[2] = system: osteoclasts; assay: TRACP staining of osteoclasts in the primary spongiosa region, pediatric steroid-induced osteoporosis model rats; conditions: GC model rats, proximal tibia, age of 12 weeks, vs. GC group
Procedure: (§1) 6-week-old growing female LEW/Cr1Crlj rats were used.
(§2) On the other hand, a steroid-induced osteoporosis model with rats has not been established. Thus, in this Example, a model rat with Prednisolone 25 mg/pellet/60 days implanted under the skin of a 6-week-old female LEW/Cr1Crlj rat was employed as a pediatric steroid-induced osteoporosis model. In this model, it was confirmed that 2, 4 and 6 weeks after implantation of prednisolone, the femur BMD decreased, and the maximum stress of each of the femur and the lumber vertebra decreased.
(3) Experimental Group (n=10 in Each Group) (i) Sham group: Sham-operation+Vehicle (PBS) (subcutaneous administration) (ii) GC group: Prednisolone (PSL) pellet 25 mg/pellet/60 days-subcutaneous implantation (GC)+Vehicle (PBS) (subcutaneous administration) (iii) GC+Siglec-15Ab group: GC treatment was performed, and an anti-Siglec-15 antibody was subcutaneously administered once every 3 weeks at a dosage of 1 mg/kg (low dosage) or at a dosage of 10 mg/kg (high dosage). The #32A1 antibody was used as the anti-Siglec-15 antibody. (iv) GC+ALN group: GC treatment was performed, and ALN was subcutaneously administered twice a week at a dosage of 0.014 mg/kg (low dosage) or at a dosage of 0.140 mg/kg (high dosage).
6 weeks after the start of administration (age of 6 weeks to age of 12 weeks). […]

[3] = Bone mass (micro-CT, bone microstructure analysis) and BMD (DXA) of the distal femur, pediatric steroid-induced osteoporosis model rats; conditions: GC model rats
Procedure: as §1, §2
(3) Experimental Group (n=10 in Each Group) (i) Sham group: Sham-operation+Vehicle (PBS) (subcutaneous administration) (ii) GC group: Prednisolone (PSL) pellet 25 mg/pellet/60 days-subcutaneous implantation (GC)+Vehicle (PBS) (subcutaneous administration) (iii) GC+Siglec-15Ab group: GC treatment was performed, and an anti-Siglec-15 antibody was subcutaneously administered once every 3 weeks at a dosage of 1 mg/kg (low dosage) or at a dosage of 10 mg/kg (high dosage). The #32A1 antibody was used as the anti-Siglec-15 antibody. (iv) GC+ALN group: GC treatment was performed, and ALN was subcutaneously administered twice a week at a dosage of 0.014 mg/kg (low dosage) or at a dosage of 0.140 mg/kg (high dosage). […]
Micro-CT imaging of the femur and the tibia was performed, and the right femur length was measured. […]

## NCCCC(O)(P(=O)(O)O)P(=O)(O)O [ALN, Alendronate]
[1]; lumber vertebra
  ratio of the osteoclast surface to the bone surface (Oc. Pm/B. Pm): decreased
[1]; proximal tibia secondary spongiosa
  ratio of the osteoclast surface to the bone surface (Oc. Pm/B. Pm): decreased
[1]; proximal tibia
  ratio of the osteoclast surface to the bone surface in the primary spongiosa region (Oc. Pm/B. Pm): significantly inferior
[2]
  ratio of the osteoclast surface to the bone surface (Oc. Pm/B. Pm) in the primary spongiosa region: significant decrease
[3]
  longitudinal growth (indicated by 3D-CT bone mass distribution): hindered
